Source: patent publication US9877980B2, “Method and composition for treatment or prevention of type 2 diabetes and hyperlipidemia” (Chun-Ching Shih, priority 2016, dated 2018)
At least one compound was matched to its structure with a doubt left.

Experiments:
Type in all cases: in vivo
Akt = assay: Western blotting of phospho-Akt/total Akt in skeletal muscle and liver; settings: HFD mice, 4 weeks, vs HF group
Method: (§1) The following experiment was performed and approved by the guidelines of the Institutional Animal Care and Use Committee of Central Taiwan University of Science and Technology. The 4-week old male C57BL/6J mice (total amount n=63) were purchased from the National Laboratory Animal Breeding and Research Center (Taipei, Taiwan). After acclimatization for one week, all of the mice were divided randomly into the control (CON) group and the high-fat diet (HFD) group. For the following 12 weeks, the CON group (n=9) was kept on a low-fat diet (Diet 12450B, Research Diets, Inc., New Brunswick, N.J., USA), while the HFD group (n=54) was exposed to a high-fat diet (Diet 12451, Research Diets, New Brunswick, N.J., USA). The low-fat diet was composed of protein 20%, carbohydrate 70% and fat 10%, whereas the high-fat diet was composed of protein 20%, carbohydrate 35%, and fat 45% (of total energy, % kcal). After HFD exposure for 8 weeks, the HFD group was further randomly subdivided into 6 groups (n=9 per group) to receive different treatments by oral gavage once daily for four weeks and on HFD. […] The HF+B1, HF+B2, and […] are collectively termed BB-treated HFD groups in the following examples. The CON mice were administered vehicle. After dosing for 4 weeks, the mice were given no food at night and sacrificed after 12 h of fasting on the next day. All of the individual tissues were collected and weighed, and portions were instantly frozen using liquid nitrogen and kept at −80° C. for subsequent target gene analysis. Blood samples (0.8 mL) were collected for analysis of blood parameters.
(§2) Protein extractions and immunoblots for the determination of phospho-AMPK (Thr^172) and phospho-Akt (Ser^473) proteins in skeletal muscle and liver tissue of mice (n=9) were carried out. About 0.1 g of liver tissue and skeletal muscle was used for the homogenate samples. Samples were powdered under liquid nitrogen and homogenized for 20 seconds in 500 μL buffer containing 20 mM Tris-HCL1 (pH 7.4 at 4° C.), 2% SDS, 5 mM EDTA, 5 mM EGTA, 1 mM DTT, 100 mM NaF, 2 mM sodium vanadate, 0.5 mM phenylmethylsulfonyl fluoride, 10 μg/mL leupeptin, and […] pepstatin. The protein concentration in supernatant was determined with a BCA protein assay kit (Thermo Scientific, Rockford, Ill., USA). 20 μg of proteins were separated by electrophoresis on a polyacrylamide gel 12% (SDS-PAGE) and transferred to a nitrocellulose membrane. […] Immunoreactive bands were detected with ECL reagent kit (GE Healthcare BioSciences, Buckinghamshire, UK). The intensity of blotting was analyzed using Alpha Easy FC software (Alpha Innotech Corporation, Randburg, South Africa). […]

DGAT2 = assay: Semi-quantitative RT-PCR of liver mRNA: DGAT2; settings: HFD mice, 4 weeks, vs HF group
Method: (§3) The following experiment was performed and approved by the guidelines of the Institutional Animal Care and Use Committee of Central Taiwan University of Science and Technology. The 4-week old male C57BL/6J mice (total amount n=63) were purchased from the National Laboratory Animal Breeding and Research Center (Taipei, Taiwan). After acclimatization for one week, all of the mice were divided randomly into the control (CON) group and the high-fat diet (HFD) group. […] After HFD exposure for 8 weeks, the HFD group was further randomly subdivided into 6 groups (n=9 per group) to receive different treatments by oral gavage once daily for four weeks and on HFD. […] The HF+B1, HF+B2, and […] are collectively termed BB-treated HFD groups in the following examples. […]
(§4) Total RNA from liver tissue of mice was isolated with a Trizol Reagent (Molecular Research Center, Inc., Cincinnati, Ohio, USA) according to the manufacturer's instructions. The integrity of the extracted total RNA was examined by 2% agarose gel electrophoresis, and the RNA concentration was determined by the ultraviolet (UV) light absorbency at 260 nm and 280 nm (Spectrophotometer U-2800A, Hitachi). […]
(§5) Levels of mRNA of genes of interest were quantified by semi-quantitative reverse transcription polymerase chain reaction (RT-PCR). […] PCR products were analyzed by 2% agarose gels and stained with ethidium bromide.

GLUT4 = assay: Western blotting of membrane GLUT4 in skeletal muscle; settings: HFD mice, 4 weeks, vs HF group
Method: as §1, with “For the following 12 weeks, the CON group (n=9) was kept on a low-fat diet (Diet 12450B, Research Diets, Inc., New Brunswick, N.J., USA), while the HFD group (n=54) was exposed to a high-fat diet (Diet 12451, Research Diets, New Brunswick, N.J., USA). The low-fat diet was composed of protein 20%, carbohydrate 70% and fat 10%, whereas the high-fat diet was composed of protein 20%, carbohydrate 35%, and fat 45% (of total energy, % kcal).” left out
The protein concentration in supernatant was determined with a BCA protein assay kit (Thermo Scientific, Rockford, Ill., USA). […] Immunoreactive bands were detected with ECL reagent kit (GE Healthcare BioSciences, Buckinghamshire, UK).

11β-HSD1 = assay: Semi-quantitative RT-PCR of liver mRNA: 11β-HSD1; settings: HFD mice, 4 weeks, vs HF group
Method: as §3, §4, §5

GPAT = assay: Semi-quantitative RT-PCR of liver mRNA: GPAT; settings: HFD mice, 4 weeks, vs HF group
Method: as §3, §4, §5

G6Pase = assay: Semi-quantitative RT-PCR of liver mRNA: G6Pase; settings: HFD mice, 4 weeks, vs HF group
Method: as §3, §4, §5

[1] = system: C57BL/6J mice on high-fat diet (HFD); assay: Blood parameters (glucose, insulin, TG, FFA, TC, leptin, adiponectin) in HFD mice; settings: vs HF group; for blood level of glucose / blood level of insulin: 4 weeks; for circulating TG levels: oral gavage 4 weeks (formula I 10, 20, 40; Rosi 10; Feno 250 mg/kg/day)
Method: as §1, with “For the following 12 weeks, the CON group (n=9) was kept on a low-fat diet (Diet 12450B, Research Diets, Inc., New Brunswick, N.J., USA), while the HFD group (n=54) was exposed to a high-fat diet (Diet 12451, Research Diets, New Brunswick, N.J., USA). The low-fat diet was composed of protein 20%, carbohydrate 70% and fat 10%, whereas the high-fat diet was composed of protein 20%, carbohydrate 35%, and fat 45% (of total energy, % kcal).” left out
A portion of the blood samples obtained from the retro-orbital sinus of fasted mice were immediately used to measure blood glucose levels using Sidekick glucose analyzer (YSI 1500, YSI Incorporated, Yellow Springs, USA) according to the glucose oxidase method. Heparin (30 units/mL, Sigma) was added into other portions of the blood samples. […] Concentrations of plasma triglycerides (TG), total cholesterol (TC), and free fatty acids (FFA) were determined using commercial assay kits according to the manufacturer's instructions (Triglycerides-E test, Cholesterol-E test, and FFA-C test, Wako Pure Chemical, Osaka, Japan). Plasma insulin, leptin, and adiponectin levels were assessed using commercial assay kits according to the manufacturer's instructions (mouse insulin ELISA kit, Mercodia, Uppsala, Sweden; mouse leptin ELISA kit, Morinaga, Yokohama, Japan; Mouse Adiponectin ELISA kit, Crystal Chem International, Downers Grove, Ill., USA).

AMPK = assay: Western blotting of phospho-AMPK/total AMPK in skeletal muscle and liver; settings: HFD mice, 4 weeks, vs HF group
Method: as §1, §2

PEPCK = assay: Semi-quantitative RT-PCR of liver mRNA: PEPCK; settings: HFD mice, 4 weeks, vs HF group
Method: as §3, §4, §5

adiponectin = assay: Semi-quantitative RT-PCR of liver mRNA: adiponectin; settings: HFD mice; 10 mg/kg/day oral gavage, 4 weeks; vs HF group
Method: as §3, §4, §5

[2] = liver, 250 mg/kg/day oral gavage
[3] = skeletal muscle, 250 mg/kg/day oral gavage
[4] = liver, 10 mg/kg/day oral gavage
[5] = skeletal muscle, 10 mg/kg/day oral gavage

## CC(C)OC(=O)C(C)(C)Oc1ccc(C(=O)c2ccc(Cl)cc2)cc1 [Feno, fenofibrate, reference compound]
Akt; [2]
  expression level of phospho-Akt/total Akt: increased
Akt; [3]
  expression level of phospho-Akt/total Akt: increased
DGAT2; 250 mg/kg/day oral gavage
  liver mRNA level of DGAT2: significantly reduced
GLUT4; 250 mg/kg/day oral gavage
  protein level of GLUT4 at the plasma membrane: significantly enhanced
11β-HSD1; 250 mg/kg/day oral gavage
  liver mRNA level of 11β-HSD1: significantly reduced
GPAT; 250 mg/kg/day oral gavage
  liver mRNA level of GPAT: significantly reduced
G6Pase; 250 mg/kg/day oral gavage
  liver mRNA level of G6Pase: significantly reduced
[1]; 250 mg/kg/day oral gavage
  blood level of glucose: markedly lowered
  blood level of insulin: markedly lowered
[1]
  circulating TG levels: decreased
AMPK; [2]
  expression level of phospho-AMPK/total AMPK: enhanced
AMPK; [3]
  expression level of phospho-AMPK/total AMPK: enhanced
PEPCK; 250 mg/kg/day oral gavage
  liver mRNA level of PEPCK: significantly reduced

## CN(CCOc1ccc(CC2SC(=O)NC2=O)cc1)c1ccccn1 (stereo not drawn) [Rosi, rosiglitazone, reference compound]
Akt; [4]
  expression level of phospho-Akt/total Akt: increased
Akt; [5]
  expression level of phospho-Akt/total Akt: increased
DGAT2; 10 mg/kg/day oral gavage
  liver mRNA level of DGAT2: significantly reduced
GLUT4; 10 mg/kg/day oral gavage
  protein level of GLUT4 at the plasma membrane: significantly enhanced
11β-HSD1; 10 mg/kg/day oral gavage
  liver mRNA level of 11β-HSD1: significantly reduced
GPAT; 10 mg/kg/day oral gavage
  liver mRNA level of GPAT: significantly reduced
G6Pase; 10 mg/kg/day oral gavage
  liver mRNA level of G6Pase: significantly reduced
[1]; 10 mg/kg/day oral gavage
  blood level of glucose: markedly lowered
  blood level of insulin: markedly lowered
[1]
  circulating TG levels: decreased
adiponectin
  liver adiponectin mRNA level: enhanced
AMPK; [4]
  expression level of phospho-AMPK/total AMPK: enhanced
AMPK; [5]
  expression level of phospho-AMPK/total AMPK: enhanced
PEPCK; 10 mg/kg/day oral gavage
  liver mRNA level of PEPCK: significantly reduced
